{"source": "PubChem BioAssay AID652243 – Drosophila RNAi Screening Center, 2013", "aim": "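Fly regulators of androgen-dependent reporter output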 (primary screen)", "system": "Drosophila S2R+ cells", "reagent": "long dsRNA against Drosophila genes", "time to read-out": "72 h (48 h, then 24 h hormone)", "treatment": "synthetic androgen R1881 at 10 nM for 24 h", "detection": "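Firefly light from an androgen-responsive reporter and Renilla control light per well, raw and unnormalised, for each of two replicates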", "scale": "firefly reporter light: higher = more light from androgen-responsive reporter; Renilla control light: higher = more constitutive control signal (cell number, transfection)", "rule for the call": "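Hit when the log firefly-to-Renilla ratio dropped or increased by a fixed fold versus the mean of GFP or LacZ controls across duplicate plates; lowering cut given as 1.5 and as 3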", "meaning of the calls": "active = hit: reporter lowered or raised; inactive = no hit", "note": "The deposit covers about 24,000 reagents; shown is an unselected part of those with a known target gene and a result. Of all reagents, 246 (1%) got an active call. 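Plates not normalised; calls are printed but the firefly/Renilla ratio behind them is not deposited; fold cut for lowering reported inconsistently.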 Raw values are not corrected between plates. The numbers tell different reagents against one gene apart. Not given: the amount of reagent."}
{"predicted target": "CG31029 (GeneID 318562)", "reagent": 1, "firefly reporter light, replicate 1": 1.84e5, "firefly reporter light, replicate 2": 2.22e5, "Renilla control light, replicate 1": 2.02e6, "Renilla control light, replicate 2": 2.81e6, "call": "inactive"}
{"predicted target": "CG31029 (GeneID 318562)", "reagent": 2, "firefly reporter light, replicate 1": 3.87e5, "firefly reporter light, replicate 2": 5.18e5, "Renilla control light, replicate 1": 8.52e5, "Renilla control light, replicate 2": 8.52e5, "call": "inactive"}
{"predicted target": "Dh44 (GeneID 41170)", "reagent": 1, "firefly reporter light, replicate 1": 80386, "firefly reporter light, replicate 2": 67262, "Renilla control light, replicate 1": 8436, "Renilla control light, replicate 2": 1.77e5, "call": "inactive"}
{"predicted target": "Dh44 (GeneID 41170)", "reagent": 2, "firefly reporter light, replicate 1": 1.87e5, "firefly reporter light, replicate 2": 1.06e5, "Renilla control light, replicate 1": 2.79e6, "Renilla control light, replicate 2": 1.94e6, "call": "inactive"}
{"predicted target": "FoxK (GeneID 39252)", "reagent": 1, "firefly reporter light, replicate 1": 4.51e5, "firefly reporter light, replicate 2": 3.15e5, "Renilla control light, replicate 1": 3.55e5, "Renilla control light, replicate 2": 4.31e5, "call": "inactive"}
{"predicted target": "CG31075 (GeneID 43244)", "reagent": 1, "firefly reporter light, replicate 1": 1.48e5, "firefly reporter light, replicate 2": 1.32e5, "Renilla control light, replicate 1": 2.05e6, "Renilla control light, replicate 2": 2.43e6, "call": "inactive"}
{"predicted target": "Vm26Ac (GeneID 33828)", "reagent": 1, "firefly reporter light, replicate 1": 86076, "firefly reporter light, replicate 2": 44647, "Renilla control light, replicate 1": 9.06e5, "Renilla control light, replicate 2": 7.67e5, "call": "inactive"}
{"predicted target": "Vm26Ac (GeneID 33828)", "reagent": 2, "firefly reporter light, replicate 1": 3.70e5, "firefly reporter light, replicate 2": 3.49e5, "Renilla control light, replicate 1": 1.02e6, "Renilla control light, replicate 2": 8.64e5, "call": "inactive"}
{"predicted target": "ais (GeneID 39979)", "reagent": 1, "firefly reporter light, replicate 1": 40526, "firefly reporter light, replicate 2": 36742, "Renilla control light, replicate 1": 4.86e5, "Renilla control light, replicate 2": 3.39e5, "call": "inactive"}
{"predicted target": "ais (GeneID 39979)", "reagent": 2, "firefly reporter light, replicate 1": 7.41e5, "firefly reporter light, replicate 2": 7.20e5, "Renilla control light, replicate 1": 6.29e5, "Renilla control light, replicate 2": 1.01e6, "call": "inactive"}
{"predicted target": "aPKC (GeneID 47594)", "reagent": 1, "firefly reporter light, replicate 1": 2.24e5, "firefly reporter light, replicate 2": 1.85e5, "Renilla control light, replicate 1": 6.89e5, "Renilla control light, replicate 2": 5.15e5, "call": "inactive"}
{"predicted target": "aPKC (GeneID 47594)", "reagent": 2, "firefly reporter light, replicate 1": 72846, "firefly reporter light, replicate 2": 88529, "Renilla control light, replicate 1": 1.61e6, "Renilla control light, replicate 2": 1.61e6, "call": "inactive"}
{"predicted target": "aPKC (GeneID 47594)", "reagent": 3, "firefly reporter light, replicate 1": 3.60e5, "firefly reporter light, replicate 2": 4.63e5, "Renilla control light, replicate 1": 1.27e6, "Renilla control light, replicate 2": 1.45e6, "call": "inactive"}
{"predicted target": "aPKC (GeneID 47594)", "reagent": 4, "firefly reporter light, replicate 1": 3.69e5, "firefly reporter light, replicate 2": 3.55e5, "Renilla control light, replicate 1": 1.01e6, "Renilla control light, replicate 2": 1.34e6, "call": "inactive"}
{"predicted target": "aPKC (GeneID 47594)", "reagent": 5, "call": "inactive"}
{"predicted target": "sav (GeneID 252554)", "reagent": 1, "firefly reporter light, replicate 1": 1.79e5, "firefly reporter light, replicate 2": 2.01e5, "Renilla control light, replicate 1": 2.77e6, "Renilla control light, replicate 2": 2.71e6, "call": "inactive"}
{"predicted target": "sav (GeneID 252554)", "reagent": 2, "firefly reporter light, replicate 1": 1.09e5, "firefly reporter light, replicate 2": 1.38e5, "Renilla control light, replicate 1": 1.99e6, "Renilla control light, replicate 2": 2.20e6, "call": "inactive"}
{"predicted target": "Pkg21D (GeneID 33253)", "reagent": 1, "firefly reporter light, replicate 1": 8.40e5, "firefly reporter light, replicate 2": 1.27e6, "Renilla control light, replicate 1": 1.42e6, "Renilla control light, replicate 2": 1.54e6, "call": "inactive"}
{"predicted target": "Pkg21D (GeneID 33253)", "reagent": 2, "firefly reporter light, replicate 1": 4.09e5, "firefly reporter light, replicate 2": 4.00e5, "Renilla control light, replicate 1": 1.08e6, "Renilla control light, replicate 2": 8.89e5, "call": "inactive"}
{"predicted target": "Pkg21D (GeneID 33253)", "reagent": 3, "call": "inactive"}
{"predicted target": "upd2 (GeneID 32805)", "reagent": 1, "firefly reporter light, replicate 1": 6.12e5, "firefly reporter light, replicate 2": 9.69e5, "Renilla control light, replicate 1": 1.14e6, "Renilla control light, replicate 2": 2.24e6, "call": "inactive"}
{"predicted target": "upd2 (GeneID 32805)", "reagent": 2, "firefly reporter light, replicate 1": 4.53e5, "firefly reporter light, replicate 2": 3.18e5, "Renilla control light, replicate 1": 1.51e6, "Renilla control light, replicate 2": 5.92e5, "call": "inactive"}
{"predicted target": "vig (GeneID 34885)", "reagent": 1, "firefly reporter light, replicate 1": 5.34e5, "firefly reporter light, replicate 2": 2.85e5, "Renilla control light, replicate 1": 2.75e6, "Renilla control light, replicate 2": 2.30e6, "call": "inactive"}
{"predicted target": "vig (GeneID 34885)", "reagent": 2, "firefly reporter light, replicate 1": 1.46e6, "firefly reporter light, replicate 2": 1.15e6, "Renilla control light, replicate 1": 2.12e6, "Renilla control light, replicate 2": 1.86e6, "call": "inactive"}
{"predicted target": "CG43897 (GeneID 39153)", "reagent": 1, "firefly reporter light, replicate 1": 1.24e5, "firefly reporter light, replicate 2": 1.15e5, "Renilla control light, replicate 1": 1.43e6, "Renilla control light, replicate 2": 9.81e5, "call": "inactive"}
{"predicted target": "CG43897 (GeneID 39153)", "reagent": 2, "firefly reporter light, replicate 1": 2.64e5, "firefly reporter light, replicate 2": 3.64e5, "Renilla control light, replicate 1": 3.65e6, "Renilla control light, replicate 2": 3.50e6, "call": "inactive"}
{"predicted target": "CG43897 (GeneID 39153)", "reagent": 3, "firefly reporter light, replicate 1": 7.35e5, "firefly reporter light, replicate 2": 4.41e5, "Renilla control light, replicate 1": 5.95e5, "Renilla control light, replicate 2": 5.51e5, "call": "inactive"}
{"predicted target": "CG43897 (GeneID 39153)", "reagent": 4, "firefly reporter light, replicate 1": 4.09e5, "firefly reporter light, replicate 2": 4.30e5, "Renilla control light, replicate 1": 7.95e5, "Renilla control light, replicate 2": 5.76e5, "call": "inactive"}

Part of the list above, reformatted:
| predicted target | reagent | firefly reporter light, replicate 1 | firefly reporter light, replicate 2 | Renilla control light, replicate 1 | Renilla control light, replicate 2 | call |
| --- | --- | --- | --- | --- | --- | --- |
| aPKC (GeneID 47594) | 2 | 72846 | 88529 | 1.61e6 | 1.61e6 | inactive |
| aPKC (GeneID 47594) | 3 | 3.60e5 | 4.63e5 | 1.27e6 | 1.45e6 | inactive |
| aPKC (GeneID 47594) | 4 | 3.69e5 | 3.55e5 | 1.01e6 | 1.34e6 | inactive |
| aPKC (GeneID 47594) | 5 | – | – | – | – | inactive |
| sav (GeneID 252554) | 1 | 1.79e5 | 2.01e5 | 2.77e6 | 2.71e6 | inactive |
